In PubChem BioAssay AID1259415 (National Center for Advancing Translational Sciences (NCATS), 2018):
Where “and” joins values, the source holds several entries; their conditions need not be identical. Equal values may be shown once. In all, about 410,000 compounds went through this assay and about 18,000 (4.4%) were called active. The shares of active, inactive and inconclusive entries below differ from those in the screen. Rule as the data show it: active = activity change below about -60%; inconclusive = no clear call, values can overlap the other calls; inactive = above about -39%.

Assay: qHTS Assay for inhibitors of the human cytomegalovirus (HCMV)
Conditions: HFF cells, HCMV-luciferase reporter, 72 h; at 57.5 µM; stronger effect = lower value
Method in brief: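 Luciferase read-out from HCMV-luciferase-infected HFFs (MOI 1 PFU/cell) 72 h post infection at 37C; compounds added after 16 h cell attachment; activity normalized between buffer-only basal and Salinomycin (10uM) inhibitor controls.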
% is scaled to controls: 0 for no effect and ±100 for the full control effect.

SMILES | activity change, negative = inhibition
Cc1cccc(NC(=O)CSc2nc3c([nH]c4ccccc43)c(=O)n2-c2cc(C)cc(C)c2)c1 | inconclusive: -46.9%
Cc1ccc(S(=O)(=O)NCCC(=O)NNC(=O)c2ccccc2Cl)cc1C | inactive: -32%
CC(C)c1ccc(NC(=O)C2CC2c2ccccc2)cc1 (stereo not drawn) | inconclusive: -40.7%
COc1cccc(C(=O)N[C@@H](CCSC)c2nc3ccccc3[nH]2)c1 | inconclusive: -58.7%
Oc1ccc(N=Nc2n[nH]c(-c3ccc(Cl)cc3)n2)cc1 | active: -94.9%
CC(C(=O)Nc1ccc(O)cc1)c1cccc(C(=O)c2ccccc2)c1 (stereo not drawn) | active: -62.9%
COc1ccc(-c2noc(CCC(=O)NCCCN3CCN(c4ccccc4F)CC3)n2)cc1 | active: -66.8%
CCOc1ccc(NC(=S)N(CCCN2CCOCC2)Cc2cn(C)c3ccccc23)cc1 | active: -92.5%
c1ccc2sc(N3CCNCC3)nc2c1 | inconclusive: -44.7%
CC(=O)Nc1cccc(N/C=C(\C=O)c2nc3ccccc3o2)c1 | inactive: -5.26%
Cc1ccc(N(CC(=O)N/N=C/c2ccc(OCC(N)=O)cc2)S(C)(=O)=O)cc1Cl | inconclusive: -40.8%
CCCS(=O)(=O)n1nc(-c2ccc(OC)cc2OC)cc1N | inactive: -1.43%
CC(C)(C)NC(=O)C(c1ccncc1)N(CC1CCCO1)C(=O)Cn1nnc(-c2ccc(F)cc2)n1 (stereo not drawn) | inconclusive: -42.7%
CCN(Cc1ccccc1)C(=O)c1cccc(S(=O)(=O)N2CCN(Cc3ccccc3)CC2)c1 | inconclusive: -45%
Cc1ccccc1COC(=O)c1nn(-c2ccccc2)nc1N | inconclusive: -56.4%
CC(=O)N/C(=C\c1ccc(Cl)cc1)C(=O)O | inactive: 2.03%
O=C(COC(=O)c1cccc2ccccc12)NCC1CCCO1 (stereo not drawn) | inconclusive: -45.6%
CCN1CCN(Cc2ccc(NC(=O)c3cc(NC(=O)N4CCNC4=O)cc(OC)c3)cc2C(F)(F)F)CC1 | active: -68.2% and inconclusive: -44.1%
Cn1c(=O)c2cc(NC(=S)NC3CC3)ccc2n1Cc1ccccc1 | inconclusive: -53.9%
O=C(Nc1ccc(Cl)cc1)C1Cc2c(-c3ccc4c(c3)OCO4)ccnc2O1 (stereo not drawn) | inconclusive: -46.7%
COCCCN1CN(S(=O)(=O)c2cccs2)c2nc3ccccc3nc21 | inactive: -24.4%
CC1CCc2nc3ccc(S(=O)(=O)N4CCC(C(=O)N5CCCCCC5)CC4)cc3c(C(=O)O)c2C1 (stereo not drawn) | inconclusive: -52%

Looked up above.
Entry for Cc1ccc(N(CC(=O)N/N=C/c2ccc(OCC(N)=O)cc2)S(C)(=O)=O)cc1Cl under activity change, negative = inhibition: inconclusive: -40.8%
Entry for O=C(COC(=O)c1cccc2ccccc12)NCC1CCCO1 (stereo not drawn) under activity change, negative = inhibition: inconclusive: -45.6%

The list goes on:

SMILES | activity change, negative = inhibition
C/C=C/C(=O)OCC(=O)Nc1ccc(SC(F)F)cc1 | active: -76.2%
Nc1nc2c(s1)CC(c1ccccc1)CC2 (stereo not drawn) | inconclusive: -46.4%
Cn1nc(C(F)(F)F)c2cc(C(=O)Nc3ccc(F)cc3F)sc21 | inconclusive: -54.1%
Cc1ccccc1N1C(=O)c2ccccc2NC1c1ccncc1 (stereo not drawn) | inconclusive: -40.7%
C[C@H]1CN([C@@H](C)CO)C(=O)Cc2cc(NS(C)(=O)=O)ccc2O[C@@H]1CN(C)CC1CC1 | active: -70.1%
O=C(c1ccc2ncsc2c1)N1CCN(c2nc3ccccc3s2)CC1 | active: -73.8%
O=C(Nc1ccccc1Br)C(=O)N1CCCC1 | inactive: 4.49%
Cc1ccc2oc(-c3ccc(NC(=O)CCC(=O)O)cc3)nc2c1 | inactive: 63.8%
O=S(=O)(c1ccccc1)N1CCN(c2ccnc3cc(Cl)ccc23)CC1 | inconclusive: -50.6%
O=C(Nc1nc2ccc(F)cc2s1)c1ccc([N+](=O)[O-])o1 | inconclusive: -59.3%
CCOC(=O)Cc1csc(NC(=S)NC(=O)C(C)(C)C)n1 | inconclusive: -46.9%
Cc1cccc(-n2ncc3c2CCCC3NC(=O)CN2CCOC2=O)c1C (stereo not drawn) | inactive: -4.22%
Cc1noc(NC(=O)c2ccccc2C(F)(F)F)c1C#N | inconclusive: -53.6%
CCc1nc(N2CCN(C(=O)c3ccccc3)CC2)c(C#N)c2c1COC(C)(C)C2 | active: -62.1%
CC(C)(C)c1ccc(C(=O)NCC(c2cccnc2)N2CCc3ccccc3C2)cc1 (stereo not drawn) | inconclusive: -49.6%
CC1ON=C(c2ccccn2)N(Cc2ccc3c(c2)OCO3)C1=O (stereo not drawn) | inconclusive: -53.3%
Cc1occc1-c1nnc(SCC(=O)c2ccc3c(c2)OCCO3)n1CC1CCCO1 (stereo not drawn) | inactive: -19.4%
COc1ccc(NC(=O)[C@H](C)NC(=O)C2CCN(S(=O)(=O)c3ccc(C)cc3)CC2)cc1OC | inconclusive: -51.6%
Cc1cc(C)cc(N(C(=O)c2ccccn2)C(C(=O)NC2CCCCC2)c2cccs2)c1 (stereo not drawn) | inconclusive: -56.2%
CCC(C)N(C(=O)Cn1nnc(-c2ccc(F)cc2)n1)C1CCS(=O)(=O)C1 (stereo not drawn) | inconclusive: -56%
COc1ccc(/C=N/NC(=O)c2cccc(C(=O)N/N=C/c3ccc(OC)c(OC)c3)n2)cc1OC | inconclusive: -40.6%
